Among the data in PubChem BioAssay AID248 (DTP/NCI, 2004) are T/C values, retold here.

The list is a part of this screen's results and no random one: it covers a few groups of compounds. Other doses and runs of a compound may be missing. T/C: endpoint of the treated group in % of that of the vehicle group. For survival time, this PubChem deposit counts one and a half times the control or more as active, and values a quarter to a half above the control carry no call in these data; other NCI protocols may use other cut-offs. Some entries show no survivor count and are marked so; the dose need not have been tolerated. Schedules are NCI's codes, read here as Q, the interval in days (D) or hours (H), X, the number of doses. Marks such as (2×) give the number of equal values in this list. Some doses were run more than once; the results are listed from low to high. Some schedules carry Z or #; the key to these is not given.

The test system of the assay is L1210 leukemia ip in BDF1 mice, survival T/C. The assay is described as follows: NCI In Vivo Anticancer Drug Screen. Data for tumor model L1210 Leukemia (intraperitoneal) in B6D2F1 (BDF1) mice. Conditions: T/C endpoint: mean survival time, higher T/C = longer survival.

With `OCC#CCN(CCCl)CCCl`, the T/C is 106 % of control [survivor count not shown] (dose: 0.3 mg/kg/injection, schedule: Q01DX001 (ip), vehicle: saline); 110 % of control [survivor count not shown] (dose: 0.6 mg/kg/injection, schedule: Q01DX001 (ip), vehicle: saline); 129 % of control [survivor count not shown] (dose: 0.7 mg/kg/injection, schedule: Q01DX009 (ip), vehicle: saline); 137 % of control [survivor count not shown] (dose: 1.1 mg/kg/injection, schedule: Q01DX009 (ip), vehicle: saline); 117 % of control [survivor count not shown] (2×) (dose: 1.3 mg/kg/injection, schedule: Q01DX001 (ip), vehicle: saline); 121 % of control [survivor count not shown] (dose: 1.3 mg/kg/injection, schedule: Q01DX009 (ip), vehicle: saline). Besides, the T/C is, setting by setting: (dose: 1.7 mg/kg/injection, schedule: Q01DX009 (ip), vehicle: saline) 116 [survivor count not shown], 117 [survivor count not shown], 151 % of control [survivor count not shown]; (dose: 2.0 mg/kg/injection, schedule: Q01DX001 (ip), vehicle: saline) 117 % of control [survivor count not shown]; (dose: 2.0 mg/kg/injection, schedule: Q01DX009 (ip), vehicle: saline) 131 % of control [survivor count not shown]; (dose: 2.6 mg/kg/injection, schedule: Q01DX001 (ip), vehicle: saline) 119 [survivor count not shown], 128 [survivor count not shown], 132 % of control [survivor count not shown]; (dose: 2.6 mg/kg/injection, schedule: Q01DX009 (ip), vehicle: saline) 87 [survivor count not shown] and 88 % of control [survivor count not shown]; (dose: 3.0 mg/kg/injection, schedule: Q01DX001 (ip), vehicle: saline) 126 % of control [survivor count not shown] (2×). For the same compound, the T/C (dose: 3.0 mg/kg/injection, schedule: Q01DX009 (ip), vehicle: saline) is 129 % of control [survivor count not shown]; the T/C (dose: 4.0 mg/kg/injection, schedule: Q01DX001 (ip), vehicle: saline) was 132 [survivor count not shown] and 136 % of control [survivor count not shown]; the T/C (dose: 4.5 mg/kg/injection, schedule: Q01DX001 (ip), vehicle: saline) is 126 % of control [survivor count not shown]; the T/C (dose: 4.5 mg/kg/injection, schedule: Q01DX009 (ip), vehicle: saline) is 88 % of control [survivor count not shown]; the T/C (dose: 6.0 mg/kg/injection, schedule: Q01DX001 (ip), vehicle: saline) is 86 [survivor count not shown], 139 [survivor count not shown], 150 % of control [survivor count not shown]; the T/C (dose: 9.0 mg/kg/injection, schedule: Q01DX001 (ip), vehicle: saline) was 90 [survivor count not shown] and 129 % of control [survivor count not shown].
As for `CCN(CC)P(=O)(OC)N(CCCl)CCCl` (centres undefined), the T/C reads like this: (dose: 100.0 mg/kg/injection, schedule: Q01DX001 (ip), vehicle: DMSO) 103 % of control [survivor count not shown]; (dose: 200.0 mg/kg/injection, schedule: Q01DX001 (ip), vehicle: DMSO) 106 % of control [survivor count not shown].
For the compound `O=P(NC1CCCCC1)(N(CCCl)CCCl)N1CC1` (centres undefined), the T/C is 104 % of control [survivor count not shown] (dose: 2.0 mg/kg/injection, schedule: Q01DX Z (ip), vehicle: saline); 97 % of control [survivor count not shown] (dose: 4.0 mg/kg/injection, schedule: Q01DX Z (ip), vehicle: saline); 104 % of control [survivor count not shown] (dose: 8.0 mg/kg/injection, schedule: Q01DX Z (ip), vehicle: saline); 129 [survivor count not shown] and 162 % of control [survivor count not shown] (dose: 16.0 mg/kg/injection, schedule: Q01DX Z (ip), vehicle: saline); 89 % of control [survivor count not shown] (dose: 32.0 mg/kg/injection, schedule: Q01DX Z (ip), vehicle: saline).
As to `CCCCOc1ccccc1N(CCCl)CCCl`, the T/C (dose: 9.5 mg/kg/injection, schedule: Q01DX Z (ip), vehicle: methylcellulose (MC)) was 99 % of control [survivor count not shown]; the T/C (dose: 14.4 mg/kg/injection, schedule: Q01DX Z (ip), vehicle: methylcellulose (MC)) was 97 % of control [survivor count not shown]; the T/C (dose: 21.7 mg/kg/injection, schedule: Q01DX Z (ip), vehicle: methylcellulose (MC)) was 95 % of control [survivor count not shown]; the T/C (dose: 32.1 mg/kg/injection, schedule: Q01DX Z (ip), vehicle: methylcellulose (MC)) is 102 % of control [survivor count not shown].
